At least one structure is not confirmed: it was looked up by name or label, or the drawing left a doubt.
What was measured:
[1] = tested on: human subjects with a Binge eating disorder (BED); experiment: Open-label clinical study of oral psilocybin with psychotherapy in BED: eating behavior, body and psychological indicators; assay type: in vivo
[2] = tested on: human subjects with a Binge eating disorder (BED); experiment: Resting EEG pre- vs post-treatment; assay type: in vivo; conditions: pre- to post-treatment
[3] = tested on: human subjects with a Binge eating disorder (BED); experiment: fMRI resting state and food cue reactivity task pre- vs post-treatment; assay type: in vivo
[4] = cited from earlier work
[5] = biological target: T1, neocortical serotonin 5-HT2A receptors (Homo sapiens, UniProt P28223); conditions: exposure following a 25 mg oral dose; cited from earlier work
T1 construct: host or cells: neocortex in vivo (endogenous receptor)

Chains of the proteins cited; added tags and fusions are not shown.
UniProt P28223, whole entry: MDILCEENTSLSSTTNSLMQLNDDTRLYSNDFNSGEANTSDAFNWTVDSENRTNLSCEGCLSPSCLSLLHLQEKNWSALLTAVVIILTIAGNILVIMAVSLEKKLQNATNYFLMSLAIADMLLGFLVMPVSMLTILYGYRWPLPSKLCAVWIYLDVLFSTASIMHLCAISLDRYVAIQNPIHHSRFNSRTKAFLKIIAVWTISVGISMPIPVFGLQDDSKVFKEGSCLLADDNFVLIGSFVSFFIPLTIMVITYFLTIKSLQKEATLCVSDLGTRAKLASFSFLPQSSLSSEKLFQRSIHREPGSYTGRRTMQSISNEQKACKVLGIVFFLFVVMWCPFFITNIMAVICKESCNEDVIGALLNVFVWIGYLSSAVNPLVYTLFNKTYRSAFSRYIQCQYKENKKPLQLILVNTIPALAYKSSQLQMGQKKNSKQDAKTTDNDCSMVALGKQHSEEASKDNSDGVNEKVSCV

[6] = tested on: patient-reported depression scores; conditions: single dose, cited from earlier work

CN(C)CCc1c[nH]c2cccc(OP(=O)(O)O)c12 [psilocybin, 3-[2-(dimethylamino)ethyl]-1H-indol-4-yl]dihydrogen phosphate]
HADS anxiety scores, average over time ([1]; 5 subjects, FIG. 4A): improving trends
HADS depression scores, average over time ([1]; 5 subjects, FIG. 4B): improving trends
Frequency of binge eating (FBE) evaluation, number of days among past 28 days with binge eating episode (Q3) ([1]; all tested subjects, FIG. 3C): decreased substantially
Clinical observations after post-dosing integration session and throughout four-week period post-dosing ([1]; one subject): reduced overall anxiety, reduced anxiety around food, reduced compulsion to overeat and improved self-image and confidence
Immediate changes observed after administration (interest in eating, trigger foods) ([1]; one subject, after 25 mg oral dose): reduced interest in eating and was resistant to the trigger foods
Improvements relating to symptoms or behaviors associated with BED ([1]; one subject, after 25 mg oral dose with psychotherapy): decreased overall anxiety, decreased anxiety regarding food, improved vision of self, improved self-confidence, improvement in depression and feeling genuinely happy, lack of binge eating desires, weight loss, and improved eating behavior
Daily Eating Questionnaire Q1 (times eaten an unusually large amount of food, past 24 hours), score over time ([1]; one subject, days after administration, FIG. 2A): decreased overall
Daily Eating Questionnaire Q2 (times with sense of lost control over eating), score over time ([1]; one subject, days after administration, FIG. 2B): decreased overall
EEG resting connectivity across the whole brain ([2]; delta, theta, alpha, and beta frequency bands): decreases in resting connectivity were predominately observed
EEG power in posterior electrodes ([2]; delta, theta, and beta frequency bands): observed to increase
EEG spectral power in the delta band ([2]; eyes open and eyes closed condition, FIG. 5A): increased
fMRI connectivity of DMN, SN, ECN networks with brain areas processing bodily sensations and vision ([3]; at rest, following treatment): altered following treatment
fMRI activity in areas associated with cognitive control ([3]; following presentation of processed food cues, FIG. 5C): greater following presentation of processed food cues after treatment vs. before treatment
fMRI connectivity between brain areas comprising the salience network (SN) ([3]; following presentation of processed foods vs. unprocessed foods, pre- to post-treatment, FIG. 5B): observed to increase from pre- to post-treatment
Onset of noticeable psychoactive effects ([4]; after a dose): within one hour
Peak of noticeable psychoactive effects ([4]; after a dose): about two hours
Loss of noticeable effects ([4]; after administration): around six hours
Occupancy of neocortical serotonin 5-HT2A receptors [5]: near-maximal occupancy
Patient-reported depression scores ([6]; after 1 week): improve patient-reported depression scores
Persistence of improvement in depression scores [6]: up to 6 months

— US20250325571A1, “TREATMENT OF BINGE EATING DISORDER USING PSYCHEDELICS” (TRYP Therapeutics Inc., priority 2022, published 2025)
